Results as given in PMC9828489.
No constants are given. Whether binding was seen depends on the method and setting. In cells and extracts the contact can be indirect. Some results given as binding are weak or reduced against the parent protein; the word gives no strength.

By UniProt entry, the sequences of proteins in these tests, tags left out.
UniProt O00308: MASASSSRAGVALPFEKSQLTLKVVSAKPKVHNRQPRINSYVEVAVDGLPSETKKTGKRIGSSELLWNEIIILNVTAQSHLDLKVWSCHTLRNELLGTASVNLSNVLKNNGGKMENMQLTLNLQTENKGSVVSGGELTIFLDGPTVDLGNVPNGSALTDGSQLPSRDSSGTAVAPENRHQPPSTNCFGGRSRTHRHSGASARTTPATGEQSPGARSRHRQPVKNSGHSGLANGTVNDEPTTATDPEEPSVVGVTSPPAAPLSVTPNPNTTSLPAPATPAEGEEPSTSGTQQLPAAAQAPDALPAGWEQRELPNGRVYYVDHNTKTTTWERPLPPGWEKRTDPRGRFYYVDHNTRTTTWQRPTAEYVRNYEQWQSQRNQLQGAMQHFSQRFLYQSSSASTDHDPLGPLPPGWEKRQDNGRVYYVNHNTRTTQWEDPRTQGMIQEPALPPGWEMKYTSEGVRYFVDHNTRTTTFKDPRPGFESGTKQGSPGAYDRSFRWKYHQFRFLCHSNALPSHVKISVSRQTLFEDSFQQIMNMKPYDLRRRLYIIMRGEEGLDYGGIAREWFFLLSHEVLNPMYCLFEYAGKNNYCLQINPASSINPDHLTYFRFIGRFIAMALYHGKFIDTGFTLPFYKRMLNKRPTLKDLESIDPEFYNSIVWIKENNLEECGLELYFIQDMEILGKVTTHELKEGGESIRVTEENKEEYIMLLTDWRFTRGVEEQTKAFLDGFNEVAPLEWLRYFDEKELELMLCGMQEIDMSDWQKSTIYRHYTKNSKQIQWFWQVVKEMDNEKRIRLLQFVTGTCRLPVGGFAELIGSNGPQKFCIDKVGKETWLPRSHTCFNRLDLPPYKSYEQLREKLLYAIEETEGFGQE

Molecular target: WWP2 (human (endogenous in HUVEC)) (UniProt O00308)
Test: co-IP; cell extracts (cells not named) incubated with anti-WWP2 or anti-PDCD4 antibody and Protein A/G, 4°C; blotted for PDCD4 or WWP2; IgG as negative control

B1: Programmed cell death 4 (PDCD4) (protein, UniProt Q53EL6 1-469)
chain: MDVENEQILNVNPADPDNLSDSLFSGDEENAGTEEIKNEINGNWISASSINEARINAKAKRRLRKNSSRDSGRGDSVSDSGSDALRSGLTVPTSPKGRLLDRRSRSGKGRGLPKKGGAGGKGVWGTPGQVYDVEEVDVKDPNYDDDQENCVYETVVLPLDERAFEKTLTPIIQEYFEHGDTNEVAEMLRDLNLGEMKSGVPVLAVSLALEGKASHREMTSKLLSDLCGTVMSTTDVEKSFDKLLKDLPELALDTPRAPQLVGQFIARAVGDGILCNTYIDSYKGTVDCVQARAALDKATVLLSMSKGGKRKDSVWGSGGGQQSVNHLVKEIDMLLKEYLLSGDISEAEHCLKELEVPHFHHELVYEAIIMVLESTGESTFKMILDLLKSLWKSSTITVDQMKRGYERIYNEIPDINLDVPHSYSVLERFVEECFQAGIISKQLRDLCPSRGRKRFVSEGDGGRLKPESY
For B1, the binding was “binds”.
